PubChem BioAssay AID504786, Drosophila RNAi Screening Center | 2011

Screen: 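Knock-downs reducing HIF reporter induction by the iron chelator DFO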 (primary screen)
Cell system: Drosophila S2 cells with a stable HIF luciferase reporter
Reagents: long dsRNA against Drosophila genes, about 0.2 µg dsRNA per well of a 384-well plate
Duration: three days of knock-down, then 20 h of DFO before reading
Challenge: desferrioxamine (DFO) at 100 µM, an iron chelator that mimics hypoxia, for 20 h
Measurement: 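Firefly luciferase driven by the mouse ldh-a hypoxia-response element, measured after 20 h of 100 µM DFO; z-scores per plate, higher means more signal lost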
Reading the numbers: z-score: higher = stronger loss of HIF reporter signal
In all, the deposit lists about 21,000 reagents; below is a random part of those that have a named target and a result. 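Primary screen; positive scores mean lost reporter signal, so the sign may be inverted from the usual convention.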 A plus sign joins genes that one reagent is predicted to hit.

gene knocked down | dsRNA | z-score, replicate 1 | z-score, replicate 2 | z-score, replicate 3 | z-score, replicate 4
Rcd-1 | DRSC19569 | 1.3 | 0.8 | – | –
Pxn | DRSC08685 | -0.1 | 0.1 | – | –
CG7943 | DRSC16351 | -0.3 | -0.2 | – | –
5-HT7 | DRSC12635 | -0.3 | -0.1 | – | –
CG34355 | DRSC13639 | -0.4 | -1.1 | 0 | -0.4
CG34355 | DRSC14520 | -0.3 | -0.5 | – | –
CG34355 | DRSC14668 | 0.1 | -0.3 | – | –
Ir21a | DRSC00528 | -0.2 | -0.3 | – | –
Twdlalpha | DRSC19914 | -0.4 | 0.2 | – | –
CG15357 | DRSC00387 | 0.2 | -0.1 | – | –
tweek | DRSC02433 | -0.2 | 0.3 | – | –
tweek | DRSC02434 | -0.2 | 0.5 | – | –
tweek | DRSC02785 | 0.8 | 2.2 | – | –
para | DRSC19141 | -0.3 | -0.4 | – | –
para | DRSC20360 | -0.2 | 0.8 | – | –
a5 | DRSC00798 | -0.2 | -0.4 | – | –
CG6481 | DRSC19995 | 0 | 0.7 | – | –
CG12054 | DRSC14467 | 2.2 | 2.6 | – | –
for | DRSC00195 | -0.4 | -0.5 | – | –
for | DRSC00818 | -0.3 | -0.4 | – | –

In a second layout: 5 of the entries above
{"gene knocked down": "5-HT7", "dsRNA": "DRSC12635", "z-score, replicate 1": -0.3, "z-score, replicate 2": -0.1}
{"gene knocked down": "CG34355", "dsRNA": "DRSC13639", "z-score, replicate 1": -0.4, "z-score, replicate 2": -1.1, "z-score, replicate 3": 0, "z-score, replicate 4": -0.4}
{"gene knocked down": "CG34355", "dsRNA": "DRSC14520", "z-score, replicate 1": -0.3, "z-score, replicate 2": -0.5}
{"gene knocked down": "CG34355", "dsRNA": "DRSC14668", "z-score, replicate 1": 0.1, "z-score, replicate 2": -0.3}
{"gene knocked down": "Ir21a", "dsRNA": "DRSC00528", "z-score, replicate 1": -0.2, "z-score, replicate 2": -0.3}

Continued:
gene knocked down | dsRNA | z-score, replicate 1 | z-score, replicate 2 | z-score, replicate 3 | z-score, replicate 4
Prosalpha6 | DRSC03401 | 5.3 | 6.1 | – | –
Cln3 | DRSC10520 | -0.1 | -0.2 | – | –
Spn43Ab | DRSC06781 | 0.2 | 0.3 | – | –
CG11069 | DRSC14289 | -0.2 | 0.1 | – | –
CG8642 | DRSC07228 | -0.3 | -0.4 | – | –
synr | DRSC02369 | -0.3 | -0.4 | – | –
Porin2 | DRSC02584 | -0.3 | 0.1 | – | –
CG18598 | DRSC15356 | -0.5 | 0 | – | –
alpha-Catr | DRSC04669 | -0.3 | -0.2 | – | –
CG32833 | DRSC04596 | -0.3 | -0.3 | – | –
CG31688 + CG31687 | DRSC02116 | 0.9 | 1.6 | – | –
CG4230 | DRSC02740 | -0.4 | 0.2 | – | –
CG13077 | DRSC02181 | -0.4 | 0 | – | –
CYTB (retired record) | DRSC21272 | -0.4 | -0.2 | – | –
